# From the supplement of paper PMC12819154, “High-throughput peptide-centric local stability assay extends protein–ligand identification to membrane proteins, tissues and bacteria” (Nature Structural & Molecular Biology, 2025)
# By UniProt entry, the sequences of proteins in these tests, tags left out. Where a name states a change or a piece, a line headed by the entry shows the natural chain unless it says otherwise.
# UniProt Q91X52: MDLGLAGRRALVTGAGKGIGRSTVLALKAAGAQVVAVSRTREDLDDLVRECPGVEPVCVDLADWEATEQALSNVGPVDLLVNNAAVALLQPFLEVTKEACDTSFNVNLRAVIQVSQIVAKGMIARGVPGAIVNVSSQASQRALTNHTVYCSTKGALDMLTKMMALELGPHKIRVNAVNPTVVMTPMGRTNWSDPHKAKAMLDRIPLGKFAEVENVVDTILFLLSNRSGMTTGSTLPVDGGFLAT
# UniProt Q91V92: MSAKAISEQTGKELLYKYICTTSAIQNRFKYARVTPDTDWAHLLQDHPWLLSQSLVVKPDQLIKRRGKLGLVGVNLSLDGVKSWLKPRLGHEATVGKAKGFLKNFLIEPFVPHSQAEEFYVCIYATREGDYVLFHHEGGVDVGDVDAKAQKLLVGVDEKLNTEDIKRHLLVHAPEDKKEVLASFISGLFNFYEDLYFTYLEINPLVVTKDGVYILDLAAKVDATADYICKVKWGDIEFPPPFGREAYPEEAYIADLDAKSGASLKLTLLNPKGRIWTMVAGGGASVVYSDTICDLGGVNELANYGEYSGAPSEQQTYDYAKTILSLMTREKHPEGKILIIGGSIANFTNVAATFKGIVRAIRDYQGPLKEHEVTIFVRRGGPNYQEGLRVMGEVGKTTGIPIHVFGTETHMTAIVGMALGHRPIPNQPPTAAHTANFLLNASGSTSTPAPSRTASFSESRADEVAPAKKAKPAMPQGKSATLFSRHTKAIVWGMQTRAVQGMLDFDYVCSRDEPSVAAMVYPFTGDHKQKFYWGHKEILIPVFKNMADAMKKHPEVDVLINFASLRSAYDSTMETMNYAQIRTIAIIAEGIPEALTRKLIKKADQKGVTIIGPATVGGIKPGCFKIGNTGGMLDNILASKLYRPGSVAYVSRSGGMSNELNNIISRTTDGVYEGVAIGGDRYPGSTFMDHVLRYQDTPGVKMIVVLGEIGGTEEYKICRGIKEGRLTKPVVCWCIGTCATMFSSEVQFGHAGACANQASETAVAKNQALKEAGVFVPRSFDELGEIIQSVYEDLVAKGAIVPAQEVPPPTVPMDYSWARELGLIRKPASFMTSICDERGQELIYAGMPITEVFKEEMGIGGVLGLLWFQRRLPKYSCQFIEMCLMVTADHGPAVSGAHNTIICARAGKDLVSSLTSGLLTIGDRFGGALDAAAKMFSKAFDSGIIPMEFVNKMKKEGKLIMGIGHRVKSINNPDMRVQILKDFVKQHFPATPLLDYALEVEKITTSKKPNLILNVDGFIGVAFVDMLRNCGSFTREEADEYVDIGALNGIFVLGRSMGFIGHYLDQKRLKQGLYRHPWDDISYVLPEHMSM
# UniProt Q91VI7: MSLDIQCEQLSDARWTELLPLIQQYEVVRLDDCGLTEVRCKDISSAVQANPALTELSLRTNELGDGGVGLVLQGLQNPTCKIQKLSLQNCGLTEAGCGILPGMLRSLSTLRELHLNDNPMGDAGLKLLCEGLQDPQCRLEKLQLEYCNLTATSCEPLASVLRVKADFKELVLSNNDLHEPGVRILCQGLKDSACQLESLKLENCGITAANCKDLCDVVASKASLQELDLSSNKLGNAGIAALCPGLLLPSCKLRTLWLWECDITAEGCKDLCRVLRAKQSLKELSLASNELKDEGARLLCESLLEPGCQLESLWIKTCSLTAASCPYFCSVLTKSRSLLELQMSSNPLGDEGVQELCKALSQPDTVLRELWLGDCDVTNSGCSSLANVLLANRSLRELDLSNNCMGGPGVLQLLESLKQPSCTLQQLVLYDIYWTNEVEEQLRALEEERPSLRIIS
# UniProt Q91VU8: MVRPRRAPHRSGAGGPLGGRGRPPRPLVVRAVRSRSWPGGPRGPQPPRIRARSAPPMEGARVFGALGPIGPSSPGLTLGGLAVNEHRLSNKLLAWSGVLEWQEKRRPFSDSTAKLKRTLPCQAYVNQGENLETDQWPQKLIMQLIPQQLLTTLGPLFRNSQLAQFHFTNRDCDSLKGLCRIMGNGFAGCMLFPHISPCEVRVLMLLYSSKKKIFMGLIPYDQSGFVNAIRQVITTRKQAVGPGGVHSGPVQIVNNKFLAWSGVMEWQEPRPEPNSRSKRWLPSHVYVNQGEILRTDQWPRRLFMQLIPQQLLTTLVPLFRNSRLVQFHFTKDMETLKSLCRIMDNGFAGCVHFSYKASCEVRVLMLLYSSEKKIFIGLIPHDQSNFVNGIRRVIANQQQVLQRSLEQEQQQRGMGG
# UniProt Q91V57: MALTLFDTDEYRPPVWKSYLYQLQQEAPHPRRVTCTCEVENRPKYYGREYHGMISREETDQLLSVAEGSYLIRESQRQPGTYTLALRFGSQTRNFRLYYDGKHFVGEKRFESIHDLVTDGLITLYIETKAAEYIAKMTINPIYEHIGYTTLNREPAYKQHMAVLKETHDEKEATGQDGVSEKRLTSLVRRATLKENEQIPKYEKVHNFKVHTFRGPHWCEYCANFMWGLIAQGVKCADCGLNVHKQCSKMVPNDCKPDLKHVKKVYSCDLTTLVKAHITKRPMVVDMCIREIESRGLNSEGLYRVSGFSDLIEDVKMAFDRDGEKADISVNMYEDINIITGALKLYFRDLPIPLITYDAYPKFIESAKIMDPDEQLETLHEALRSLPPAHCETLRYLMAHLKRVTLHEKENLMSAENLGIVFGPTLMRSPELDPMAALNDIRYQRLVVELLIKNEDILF
# This is one part of the list. Small differences around the control level are noise.
# Compound: CN[C@@H]1C[C@H]2O[C@@](C)([C@@H]1OC)n1c3ccccc3c3c4c(c5c6ccccc6n2c5c31)C(=O)NC4 [staurosporine]
# Assay: log2 fold change of tryptic peptide abundance, ligand vs vehicle (limited proteolysis) (log2 ratio); higher = more trypsin-susceptible (destabilized)
# Conditions: ligand concentration: 20 uM; sample: mouse liver crude lysate; replicate design: treated separately
row,Target,log2 fold change
1,"UniProt Q91X52 (peptide sequence: MMALELGPHK, peptide start residue: 162)",0.177
2,"UniProt Q91V92 (peptide sequence: EILIPVFK, peptide start residue: 537)",-0.237
3,"UniProt Q91VI7 (peptide sequence: ALEEERPSLR, peptide start residue: 444)",0.182
4,"UniProt Q91VU8 (peptide sequence: SLEQEQQQR, peptide start residue: 404)",-0.119
5,"UniProt Q91V57 (peptide sequence: HFVGEKR, peptide start residue: 103)",0.132
